Measurements reported in article PMC8692132.
Residue numbers refer to the chain shown, from its start. These are yes or no findings as the source states them, for the method shown. Binding seen in cells or lysates may run through a third protein. Some entries that bind do so weakly or less than the wild type.

Amino acid sequences for entries named in this document (tags omitted).
UniProt P02340: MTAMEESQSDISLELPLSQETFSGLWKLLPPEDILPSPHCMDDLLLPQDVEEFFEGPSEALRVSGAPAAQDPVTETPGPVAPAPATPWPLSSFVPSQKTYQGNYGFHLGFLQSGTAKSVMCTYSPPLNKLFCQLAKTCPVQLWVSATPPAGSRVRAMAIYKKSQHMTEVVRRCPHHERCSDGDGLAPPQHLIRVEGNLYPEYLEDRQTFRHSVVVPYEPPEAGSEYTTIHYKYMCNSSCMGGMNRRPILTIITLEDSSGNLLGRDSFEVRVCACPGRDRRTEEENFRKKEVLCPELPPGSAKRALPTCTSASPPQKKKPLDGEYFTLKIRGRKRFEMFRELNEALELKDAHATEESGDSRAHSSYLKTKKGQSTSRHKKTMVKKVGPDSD

Columns and labels:
[1] = target: T1, PolG D257A of PolG^D257A/D257A mice, endogenous in aortas (mouse (endogenous in aortas)) (UniProt P54099); assay: co-IP; lysates of aortas of WT and PolG^D257A/D257A mice with or without Vit D3 treatment; anti-PolG or anti-p53 antibody or control IgG on protein A/G beads; blot with anti-p53 or anti-PolG
T1 sequence: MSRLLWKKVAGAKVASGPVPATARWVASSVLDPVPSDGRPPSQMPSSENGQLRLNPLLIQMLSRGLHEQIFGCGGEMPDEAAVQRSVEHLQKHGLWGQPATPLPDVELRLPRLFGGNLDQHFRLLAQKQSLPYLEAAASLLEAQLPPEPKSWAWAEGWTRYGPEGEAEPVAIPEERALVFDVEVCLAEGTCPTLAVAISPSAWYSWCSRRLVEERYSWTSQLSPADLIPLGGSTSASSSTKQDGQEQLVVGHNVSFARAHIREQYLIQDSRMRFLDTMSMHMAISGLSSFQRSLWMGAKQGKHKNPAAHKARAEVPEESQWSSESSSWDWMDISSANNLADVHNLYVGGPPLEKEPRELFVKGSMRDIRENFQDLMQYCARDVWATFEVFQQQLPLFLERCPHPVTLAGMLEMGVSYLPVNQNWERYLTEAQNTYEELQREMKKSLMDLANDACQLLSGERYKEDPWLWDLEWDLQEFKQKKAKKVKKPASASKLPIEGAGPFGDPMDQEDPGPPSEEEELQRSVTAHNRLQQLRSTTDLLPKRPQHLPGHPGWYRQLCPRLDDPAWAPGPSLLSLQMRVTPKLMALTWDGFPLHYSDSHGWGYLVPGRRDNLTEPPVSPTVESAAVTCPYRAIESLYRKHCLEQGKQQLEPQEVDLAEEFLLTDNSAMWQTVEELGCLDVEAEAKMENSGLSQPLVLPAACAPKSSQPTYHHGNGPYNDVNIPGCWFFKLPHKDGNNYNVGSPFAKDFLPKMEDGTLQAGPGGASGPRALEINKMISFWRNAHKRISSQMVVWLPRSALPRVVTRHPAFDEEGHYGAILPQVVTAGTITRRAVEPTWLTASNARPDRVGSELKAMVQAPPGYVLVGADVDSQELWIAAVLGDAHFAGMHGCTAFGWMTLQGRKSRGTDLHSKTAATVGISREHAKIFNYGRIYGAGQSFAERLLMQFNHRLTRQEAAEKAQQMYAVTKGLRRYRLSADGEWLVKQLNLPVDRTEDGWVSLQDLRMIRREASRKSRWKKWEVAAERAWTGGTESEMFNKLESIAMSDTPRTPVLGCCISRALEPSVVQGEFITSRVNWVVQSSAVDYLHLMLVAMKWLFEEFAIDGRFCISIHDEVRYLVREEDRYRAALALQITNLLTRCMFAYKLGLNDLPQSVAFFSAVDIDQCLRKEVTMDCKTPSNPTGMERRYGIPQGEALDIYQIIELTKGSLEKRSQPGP

[2] = target: T2, PolG of wild type mice, endogenous in aortas (mouse (endogenous in aortas)) (UniProt P54099); assay: as above
T2 sequence: T1 sequence with A257D

binding [1]: binds
binding [2]: binds
Substance: p53, endogenous in mouse aortas (from UniProt P02340 1-390)
